# Experimental data published in PubChem BioAssay AID2685 (National Center for Advancing Translational Sciences (NCATS), 2010).
# The list shows a part of the results. Shown are side measurements of this screen, not its main read-out; they come without a call. Compounds called inactive in the main read-out are mostly missing here. Potencies come from curve fits of mixed quality, noted in brackets.
# Test: qHTS Assay for Lipid Storage Modulators in Drosophila S3 Cells;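 as to cell number change: cells counted by Cell Tracker Red CMTPX staining in the red channel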
# Settings: BODIPY lipid droplet fluorescence, 18-24 h; for cell number change: measured here: cell count max response, cells fed with added oleic acid
# Method in brief: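 Drosophila S3 cells got compounds at several concentrations plus oleic acid (400 uM solution). Laser-scanning cytometry with 488 nm excitation read lipid droplets at 500-530 nm and cells at 575-640 nm. Percent activity was relative to 20 uM Triacsin C.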
# [1] = measured here: cell number channel AC50, cells fed with added oleic acid
# [2] = measured here: lipid fluorescence (Fed channel) AC50, cells fed with added oleic acid
SMILES,cell number change [%],AC50 [1],AC50 [2]
COc1ccc(C)cc1NC(=O)CNc1ccc(C(C)=O)cc1,31.6,"29.1 µM [rising, single point]","0.00461 µM [falling, full curve, poor fit]"
Cc1ccc(S(=O)(=O)N2CCN(C(=O)c3cccs3)CC2)cc1,–,–,"0.0731 µM [falling, full curve, poor fit]"
CCCCCOc1ccc(C(=O)N(Cc2ccco2)C2CCS(=O)(=O)C2)cc1 (stereo not drawn),-11,–,"6.51 µM [falling, single point]"
COc1ccccc1C(=O)Nc1nc2cc3c(cc2s1)OCCO3,-28.9,–,"16.4 µM [falling, single point]"
O=C(O)CCc1nc2ccccc2n(CCc2ccccc2)c1=O,-10.4,–,"0.116 µM [rising, single point]"
Cn1cc(S(=O)(=O)NC2CCCC2)c(=O)n(C)c1=O,-23.3,–,"13 µM [falling, partial curve]"
Cc1ccc(S(=O)(=O)NCC2CCC(C(=O)NCc3cccnc3)CC2)cc1 (stereo not drawn),-85.4,–,–
Cc1cc(C)nc(N2CCCC(C(=O)NCCc3ccccc3F)C2)n1 (stereo not drawn),-19.3,–,"3.66 µM [rising, partial curve]"
Cn1c(SCC(=O)N2CCOCC2)nnc1-c1cnccn1,-117,"25.9 µM [falling, partial curve]","25.9 µM [falling, partial curve]"
CC(NC(=O)COc1ccccc1)C(c1ccccc1)N1CCN(C)CC1 (stereo not drawn),3.25,–,–
COc1ccccc1/C=C1\SC(=O)N(CCC(=O)N2CCCCC2CCO)C1=O (stereo not drawn),3.24,–,–
O=C(COc1cccnc1[N+](=O)[O-])NCCc1ccc(Cl)cc1,-106,"29.1 µM [falling, single point]","29.1 µM [falling, partial curve]"
O=C(CCN1C(=O)c2ccccc2C1=O)Nc1ccc(-c2cn3ccsc3n2)cc1,-51.1,"16.4 µM [falling, single point]","29.1 µM [falling, single point]"
CC(=O)Nc1ccc(OCC(=O)NC(C)c2ccc(F)cc2)cc1 (stereo not drawn),7.44,–,–
CC(C)CNC(=O)c1ccc(Cl)c(N)c1,55.7,"1.84 µM [falling, partial curve]","6.51 µM [falling, single point]"
CCOC(=O)c1c(NC(=O)COC(=O)CC(NC(C)=O)c2ccccc2)sc(C(=O)NC)c1C (stereo not drawn),-15.8,–,"6.51 µM [rising, single point]"
Cn1nnnc1SC(C(=O)Nc1ccc(F)cc1)c1ccccc1 (stereo not drawn),–,"0.13 µM [rising, full curve, poor fit]","6.51 µM [rising, partial curve, poor fit]"
CCN(CC)C(=O)COc1ccc2c(c1)C(=O)CC(C)(C)O2,3.43,"0.103 µM [rising, full curve, poor fit]",–
Cc1ccccc1C(OCC(O)CN1CCCCC1CCO)c1ccccc1 (stereo not drawn),-21.4,"5.17 µM [falling, single point]",–

# An excerpt from above in order of molar mass, high to low.
SMILES,cell number change [%],AC50 [1],AC50 [2]
CCOC(=O)c1c(NC(=O)COC(=O)CC(NC(C)=O)c2ccccc2)sc(C(=O)NC)c1C (stereo not drawn),-15.8,–,"6.51 µM [rising, single point]"
COc1ccccc1/C=C1\SC(=O)N(CCC(=O)N2CCCCC2CCO)C1=O (stereo not drawn),3.24,–,–
O=C(CCN1C(=O)c2ccccc2C1=O)Nc1ccc(-c2cn3ccsc3n2)cc1,-51.1,"16.4 µM [falling, single point]","29.1 µM [falling, single point]"
CCCCCOc1ccc(C(=O)N(Cc2ccco2)C2CCS(=O)(=O)C2)cc1 (stereo not drawn),-11,–,"6.51 µM [falling, single point]"
CC(NC(=O)COc1ccccc1)C(c1ccccc1)N1CCN(C)CC1 (stereo not drawn),3.25,–,–
Cc1cc(C)nc(N2CCCC(C(=O)NCCc3ccccc3F)C2)n1 (stereo not drawn),-19.3,–,"3.66 µM [rising, partial curve]"
Cc1ccc(S(=O)(=O)N2CCN(C(=O)c3cccs3)CC2)cc1,–,–,"0.0731 µM [falling, full curve, poor fit]"
O=C(COc1cccnc1[N+](=O)[O-])NCCc1ccc(Cl)cc1,-106,"29.1 µM [falling, single point]","29.1 µM [falling, partial curve]"
CC(=O)Nc1ccc(OCC(=O)NC(C)c2ccc(F)cc2)cc1 (stereo not drawn),7.44,–,–
O=C(O)CCc1nc2ccccc2n(CCc2ccccc2)c1=O,-10.4,–,"0.116 µM [rising, single point]"
COc1ccc(C)cc1NC(=O)CNc1ccc(C(C)=O)cc1,31.6,"29.1 µM [rising, single point]","0.00461 µM [falling, full curve, poor fit]"
CCN(CC)C(=O)COc1ccc2c(c1)C(=O)CC(C)(C)O2,3.43,"0.103 µM [rising, full curve, poor fit]",–
Cn1cc(S(=O)(=O)NC2CCCC2)c(=O)n(C)c1=O,-23.3,–,"13 µM [falling, partial curve]"

# Additional records.

SMILES,cell number change [%],AC50 [1],AC50 [2]
CC1CN(c2ccccc2)NC1=O (stereo not drawn),11.3,–,"0.082 µM [falling, partial curve, poor fit]"
O=C(Nc1ccc2c(c1)OCO2)Nc1cnccn1,280,–,"0.103 µM [rising, full curve, poor fit]"
CC(C)N1CCC2(CC1)C(C#N)=C(N)NC(S)=C2C#N,-46.3,"18.4 µM [falling, single point]",–
O=C(C1CCCO1)N1CCN(C(=S)Nc2ccccc2Cl)CC1 (stereo not drawn),-33.4,"3.66 µM [falling, partial curve, poor fit]","0.184 µM [falling, full curve, poor fit]"
O=C(C1=COCCO1)N1CCN(S(=O)(=O)c2cccc(F)c2)CC1,-8.16,–,"29.1 µM [falling, single point]"
Cc1ccc(S(=O)(=O)/N=C2\C=C(Nc3cccc(C(=O)O)c3)C(=O)c3ccccc32)c(C)c1,-40.5,"29.1 µM [falling, single point]","29.1 µM [falling, single point]"
COc1ccc(-c2cc(-c3ccc(Br)cc3)nc3ncnn23)cc1OC,-16.7,"2.06 µM [rising, partial curve]","1.84 µM [rising, partial curve]"
CSc1nsc(NC(=O)OCc2ccc(Cl)cc2)n1,1.72,–,"29.1 µM [falling, single point]"
Cc1ccc2cc(C)c(NCCO)nc2c1,0.857,"0.13 µM [falling, full curve]",–
COc1ccccc1NC(=O)C1=C(C)Nc2ncnn2C1c1ccc(C)o1 (stereo not drawn),–,"6.51 µM [rising, partial curve]","0.517 µM [rising, full curve]"
CCOc1ccc(C2C(C(=O)c3ccc(C)o3)=C(O)C(=O)N2Cc2cccnc2)cc1 (stereo not drawn),–,–,"6.51 µM [falling, single point]"
Cc1ccc(CNC(=O)C2CCCN(C(=O)N(C)C)C2)cc1 (stereo not drawn),-32.4,"29.1 µM [falling, single point]","3.66 µM [falling, partial curve]"
C=CCN(C(=O)CNS(=O)(=O)c1ccccc1)C(C(=O)NCCOC)c1cccnc1 (stereo not drawn),24.2,–,"0.651 µM [falling, single point]"
CC(C)Cn1cnc2c1c(=O)n(C)c(=O)n2C,62.4,"16.4 µM [rising, partial curve, poor fit]",–
CCOc1ccccc1NC(=O)C1CCCN(S(=O)(=O)c2ccc3c(c2)C(C)(C)C(=O)N3C)C1 (stereo not drawn),-17.4,–,"29.1 µM [falling, single point]"
CCn1c(SC(C)C(=O)O)nnc1-c1cccnc1 (stereo not drawn),-104,"16.4 µM [falling, partial curve]","0.82 µM [falling, full curve]"
O=C(CSc1nc2ccccc2[nH]1)c1ccco1,-12.1,–,"14.6 µM [rising, single point]"
CC1(C)CC(=O)N(CC(=O)N2CCN(c3ncccn3)CC2)c2ccccc2S1(=O)=O,1.59,–,"25.9 µM [falling, partial curve, poor fit]"
COc1cc(C=O)c(Br)cc1OC1CCCC1,15.6,"0.13 µM [falling, full curve]","0.58 µM [falling, single point]"

SMILES,cell number change [%],AC50 [1],AC50 [2]
CCOC(=O)C1CCCN(C(=S)Nc2ccc(C)cc2C)C1 (stereo not drawn),41,"20.6 µM [rising, single point]",–
CCC(C)NS(=O)(=O)c1cccs1 (stereo not drawn),-44.2,"1.03 µM [falling, full curve]","2.31 µM [falling, full curve]"
Cc1c(C(=O)O)nnn1-c1ccccc1,12.6,–,"3.66 µM [falling, full curve]"
Nc1ccc(Nc2ccccc2)cc1,-44.8,"20.6 µM [falling, partial curve]","20.6 µM [falling, single point]"
COc1ccc(CC(=O)Nc2nnc(CC(C)C)s2)cc1S(=O)(=O)N1CCOCC1,6.02,–,–
O=C(COC(=O)c1ccc(Br)cc1)NC(=O)NCc1ccccc1,-17.2,–,"14.6 µM [falling, single point]"
CC(C)(C#N)c1cc(Cn2cncn2)cc(C(C)(C)C#N)c1,-3.09,–,"4.11 µM [falling, single point]"
COc1ccc(C)cc1N(CC(=O)Nc1cccc(N(C)S(C)(=O)=O)c1)S(C)(=O)=O,23.4,–,"6.51 µM [falling, single point]"
CCc1ccc(OCC(=O)N/N=C\c2ccco2)c([N+](=O)[O-])c1,32.2,"5.17 µM [rising, partial curve]","10.3 µM [rising, partial curve]"
COc1ccc2cc(-c3cc(C(=O)OCC(=O)Nc4c(C)n(C)n(-c5ccccc5)c4=O)c4ccccc4n3)ccc2c1,-15.9,–,"0.82 µM [falling, full curve, poor fit]"
O=c1[nH]c(SCc2cccc(Cl)c2)nc2ccccc12,-3.95,"6.51 µM [rising, single point]","4.61 µM [rising, single point]"
Cc1ccc(Nc2nc(NCC3CCCO3)nc(N)c2[N+](=O)[O-])cc1C (stereo not drawn),1.77,–,"4.11 µM [rising, single point]"
COc1cc(NC(=O)c2cccs2)ccc1NC(=O)Cc1ccccc1,-23.8,–,–
COc1ccccc1C(=O)Oc1ccc2c(c1)O/C(=C\c1ccncc1)C2=O,1.66,–,"29.1 µM [falling, single point]"
Cc1oc(-c2ccccc2F)nc1CS(=O)(=O)CC(=O)NCc1ccco1,11.2,–,–
COc1ccc(NC(=O)c2nnn(CC(=O)Nc3ccc4c(c3)OCO4)c2N)c(OC)c1,-3.95,"0.259 µM [rising, partial curve, poor fit]","0.92 µM [rising, full curve]"
NS(=O)(=O)c1ccc(N2CCOCC2)c(C(=O)NCc2ccc3c(c2)OCO3)c1,99.5,"11.6 µM [rising, partial curve]",–
COc1ccccc1Nc1cc(C(=O)N2CCc3ccccc3C2)c2ccccc2n1,50.9,"29.1 µM [rising, single point]","29.1 µM [rising, single point]"
Cc1nc2ccc(NC(=O)N3CCOCC3)cc2s1,48.7,"7.31 µM [rising, partial curve]","18.4 µM [rising, partial curve]"
